Measurements reported in patent US5721210A (priority 1995, dated 1998).
HELM strings list residues between dots; [ac] is acetyl, [am] amide, other brackets name non-standard units.

Columns and labels:
[1] = general procedure: Boc solid-phase peptide synthesis; BOC-Ser(Bzl)OCH2-PAM resin; DCC (0.5M in DCM); BOP/DIEA for on-resin cyclization; details: whole synthesis, scale 0.75 mmol, acetate
[2] = general procedure: Boc solid-phase peptide synthesis; BOC-Cys(S-p-methylbenzyl)-Merrifield resin; BOC-Ser(Bzl)OCH2-PAM resin; 4-methylbenzhydrylamine resin; DCC (0.5M in DCM); BOP/DIEA for on-resin cyclization; details: whole synthesis, acetate

**Q.** With “PEPTIDE1{C.G.R.G.D.S.P.C}$PEPTIDE1,PEPTIDE1,1:R3-8:R3$$$V2.0” as the substance, how does the crude mass [1] read?
**A.** 730 mg

**Q.** And the “final HPLC purity” value ([2]; HPLC, scale of the general procedure 0.75 mmol, 1.4 mmol, 1.6 mmol)?
**A.** 98.7%

**Q.** And the isolated mass ([2]; scale 0.75 mmol)?
**A.** 92.9 mg
